The other results are listed elsewhere or left out. The main result of the screen is listed elsewhere. These columns were measured beside it and carry no call. Most of these compounds were active or inconclusive in the main read-out, so they are no random draw. The note in brackets gives the kind of curve behind each potency; many fits are weak.

Usually AC50 stands for the concentration at which the activity in the assay is half-maximal.

The nature of the experiment: qHTS Assay for Modulators of Lamin A Splicing. The note with it: HeLa LMNA splicing GFP/RFP minigene ratio, 48 h. The gist of the method: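 Read-out is the ratio of GFP to DsRed2 object intensity, acquired by 488 nm laser-scanning cytometry on HeLa lamin A-EGFP minigene reporter cells. Compound incubation 48 hrs at 37 °C in Opti-MEM with 2% FBS; DMSO 0.5% final.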
A general note: In qHTS, concentration-response curves come from the screen itself.

The mark [1] stands for this setting: measured here: RFP viability control channel.
Setting [2] is: measured here: GFP splicing reporter channel.

Consider `CC(NC(=S)Nc1ccc(OC(F)F)c(Cl)c1)C(C)(C)C` (stereo unspecified), for which, under setting [1], the AC50 is 35.5 µM [rising, partial curve].
With `FC(F)(F)c1ccccc1-c1cncnc1NCCN1CCOCC1`, the concentration at half-maximal activity (AC50) is 11.2 µM [falling, partial curve] under setting [2] and 11.2 µM [falling, partial curve] under setting [1].
As to `COc1cccc(S(=O)(=O)NCC(=O)Nc2ccc(C(C)(C)C)cc2)c1`, the AC50 under setting [2] was 35.5 µM [rising, single point] and the concentration at half-maximal activity (AC50) under setting [1] was 35.5 µM [rising, single point].
Turning to `Cc1ccc(OCC(=O)Nc2c[nH]c(=O)[nH]c2=O)cc1C`, the half-maximal activity concentration (AC50) under setting [2] is 35.5 µM [falling, single point].
Same read-out and setting: the same measure for `O=C(O)c1ccc(/C=N/NC(=S)NC2CCCCC2)cc1`: 10 µM [rising, partial curve, poor fit].
`CCn1cc(CN2CCc3c([nH]c4ccccc34)C2c2ccc(F)c(OC)c2)c(C)n1` (stereo unspecified): under setting [2], the half-maximal activity concentration (AC50) was 3.98 µM [rising, single point].
On to `Cc1ccc(CN2CCN(Cc3ccccc3-c3ccco3)CC2CCO)o1` (stereo unspecified), for which the AC50 under setting [1] was 2.82 µM [falling, partial curve, poor fit].
Consider `CCN1CCN(CC(=O)Nc2sc3c(c2C#N)CCC(C)C3)CC1` (stereo unspecified), for which the half-maximal activity concentration (AC50) by setting is: under setting [2], 15.8 µM [falling, single point]; under setting [1], 22.4 µM [falling, single point].
Regarding `COC(=O)c1ccc(C2C3=C(Nc4nnnn42)c2ccccc2OC3)cc1` (stereo unspecified), the AC50 under setting [1] is 35.5 µM [rising, single point].
Regarding `Cc1cc(-n2c(C)cc(C(=O)CSc3nnnn3-c3ccccc3)c2C)no1`, the AC50 is 10 µM [rising, partial curve, poor fit] under setting [2] and 25.1 µM [rising, single point] under setting [1].
As for `COCCn1c(C(=O)N2CCCC2)cc2c1C[C@H]1CN(C(=O)c3ccccc3)[C@@](Cc3ccc(F)cc3)(C(=O)OC)[C@@H]21`, the AC50 under setting [1] was 15.8 µM [rising, single point].
As for `CC1CN(S(=O)(=O)c2ccc(-c3nc4ccccc4s3)cc2)CC(C)O1` (stereo unspecified), the AC50 under setting [2] is 6.31 µM [falling, single point].
As for `Cc1ccc(N/C=C/C(=O)c2ccccc2)cc1C`, the AC50 is 28.2 µM [rising, single point] under setting [2] and 17.8 µM [rising, single point] under setting [1].
Turning to `CCn1c2ccccc2c2cc(NC(=O)C(C)C)ccc21`, the AC50 under setting [1] is 35.5 µM [falling, single point].
As to `Cc1sc2nc(CSc3ccccc3)nc(NCCN(C)C)c2c1C`, the half-maximal activity concentration (AC50) under setting [1] was 15.8 µM [rising, single point].
The same measure, in the same setting: the same measure for `NC(=O)C1(N2CCCCC2)CCN(C(=S)Nc2cccc(Cl)c2)CC1`: 31.6 µM [rising, single point].
